Measured values: US6492335B1, “Glycoconjugates from modified camptothecin derivatives (20-O-linkage)” (Bayer Aktiengesellschaft, priority 1996, dated 2002)
At least one structure is not confirmed: it was looked up by name or label, or the drawing left a doubt.

Test system: large-cell lung carcinoma LXFL 529
Assay: In vivo inhibition of tumour growth in the nude mouse model
Settings: at MTD and at ½ MTD
Procedure: For all in vivo experiments for investigation of the inhibition of tumour growth athymic nude mice (NMRI nu/nu strain) were used. The selected large-cell lung carcinoma LXFL 529 was grown by serial passage in nude mice. The human origin of the tumour was confirmed by isoenzymatic and immunohistochemical methods.
The tumour was implanted subcutaneously into both flanks of 6 to 8 week old nu/nu nude mice. The treatment was started, depending on the doubling time, as soon as the tumours had reached a diameter of 5-7 mm. The mice were assigned to the treatment group and the control group (5 mice per group with 8-10 assessable tumours) by randomization. The individual tumours of the control group all grew progessively.
The size of the tumours was measured in two dimensions by means of a slide gauge. The tumour volume, which correlated well with the cell count, was then used for all evaluations. The volume was calculated according to the formula “length×breadth×breadth/2” ([a×b^2]/2, a and b represent two diameters at right angles).
The values of the relative tumour volume (RTV) were calculated for each individual tumour by dividing the tumour size on day X with the tumour size on day 0 (at the time of randomization). […]
The inhibition of the increase of the tumour volume (tumour volume of the test group/control group, T/C, in per cent) was the final measured value. […]

CCc1c2c(nc3ccccc13)-c1cc3c(c(=O)n1C2)COC(=O)[C@@]3(CC)OC(=O)[C@H](C)NC(=O)[C@H](CCCCNC(=S)Nc1ccc(OC2O[C@@H](C)[C@@H](O)[C@@H](OC)[C@@H]2O)cc1)NC(=S)Nc1ccc(OC2O[C@@H](C)[C@@H](O)[C@@H](OC)[C@@H]2O)cc1 (stereo partly drawn) [Example 1.1, 20(S)-7-Ethyl-20-O-{N^α, N^ε-bis-[O-(3-O-methyl-β-L-fucopyranosyl)-4-hydroxy-phenylamino-thiocarbony]-lysyl-alanyl}-camptothecin]
Therapeutic efficacy against LXFL 529 xenograft: marked tumour remission
